Experimental data as given in US11560546B2, “Methods for neural conversion of human embryonic stem cells” (MEMORIAL SLOAN KETTERING CANCER CENTER, priority 2009, dated 2023).
For some assays here: At least one compound was matched to its structure with a doubt left. Some of these results come from one statement about several compounds together.

Assays:
hESCs [1] = test: qRT-PCR of FP, AN and regional markers during FP induction; type: cell-based, human
Method: For MS5 induction, established methods previously reported were used (Perrier et al., 2004). Feeder free neural induction was carried out as previously described (Chambers et al., 2009). Briefly, hESCs cultures were disaggregated using accutase for 20 minutes, washed using hESCs media and pre-plated on gelatin for 1 hour at 37° C. in the presence of ROCK inhibitor to remove MEFs. The nonadherent hESCs were washed and plated on matrigel at a density of 20,000 cells/cm2 on matrigel (BD) coated dishes in MEF conditioned hESCs media (CM) spiked with 10 ng/mL of FGF-2 and ROCK-inhibitor. The ROCK inhibitor was withdrawn, and hESCs were allowed to expand in CM for 3 days or until they were nearly confluent. The initial differentiation media conditions included knock out serum replacement (KSR) media with […] TGF-b inhibitor (SB431542, Tocris) and 500 ng/mL of Noggin (R&D). Upon day 5 of differentiation, increasing amounts of N2 media (25%, 50%, 75%) was added to the KSR media every two days while maintaining 500 ng/mL of Noggin and TGF-b inhibitor. For FP induction, Sonic C25II was added at 200 ng/ml.
Total RNA was extracted using an RNeasy kit (Qiagen). For each sample, 1 ug of total RNA was treated for DNA contamination and reverse transcribed using the Superscript III (Invitrogen). Amplified material was detected using Taqman probes and PCR mix (ABI) on a Mastercycler RealPlex2 (Eppendorf). All results were normalized to a HPRT control and are from 3 technical replicates of 3 independent biological samples at each data point.
FOXA2 is a key marker of FP development. However, FOXA2 is also highly expressed in the endoderm. To further characterize the hESC derived putative FP tissue, the inventors performed qRT-PCR analyses for candidate markers at Day 11. […]
The inventors contemplated the use of SIX6 as a putative marker of anterior FP identity. […] Each of these caudalizing factors was added in combination with SHH and the resulting tissue was assessed for expression of the FP markers FOXA2 and NETRIN-1, the AN marker BF1, and putative anterior FP marker SIX6.

hESCs [2] = test: Neural induction of hESC under adherent conditions, PAX6 expression; type: cell-based, human; details: KSR medium, 11 days
Method: The inventors contemplated that establishing an even cell distribution is critical for inducing homogenous neural differentiation of hESCs. To this end, undifferentiated hESC were dissociated into single cells and re-plated onto Matrigel coated dishes in conditioned medium supplement with ROCK inhibitor, Y-27632 (Wananabe et at, 2007). After 72 hours cells were switched from hESC conditions to knock-out serum replacement medium (KSR) containing either Noggin, SB4315242, or both factors and allowed to differentiate for a total of 11 days (FIG. 1.a.). […] Neural induction was monitored by expression of PAX6, an early marker of neuroectodermal differentiation ([…], et al., Annu Rev Neurosci 20:483 (1997). As an alternative to the specific Smad inhibitors used here, it is possible to block both distinct Smad pathways using alternative inhibitors or mechanisms. Dorsomorphin is a small molecule alternative to Noggin, targeting the same pathway. Concentrations ranged from 10 uM to 30 nM, each individual amount added to 10 uM of SB431542. […] Quantitative Real-Time (Dual SMAD). […] For each sample, 1 ug of total RNA was treated for DNA contamination and reverse transcribed using the Quantitect RT kit (Qiagen). Amplified material was detected using Quantitect SYBR green probes and PCR kit (Qiagen) on a Mastercycler RealPlex2 (Eppendorf). […]

[3] = caudalizing factor added in combination with SHH

Row | Compound | FP production based on FOXA2 and Netrin-1 expression (hESCs [1]; added in combination with SHH) | BF1 expression (hESCs [1]; [3]) | SIX6 expression (hESCs [1]; [3]) | PAX6+ cells, efficiency of neural induction (of total cells) (hESCs [2])
1 | CC1=C(/C=C/C(C)=C/C=C/C(C)=C/C(=O)O)C(C)(C)CCC1 [Retinoic Acid, reference compound] | significantly potentiated FP production | dramatic reduction in BF1 expression | significant reduction in SIX6 expression | –
2 | NC(=O)c1ccc(-c2nc(-c3ccc4c(c3)OCO4)c(-c3ccccn3)[nH]2)cc1 [SB431542, 4-[4-(1,3-benzodioxol-5-yl)-5-(2-pyridinyl)-1H-imidazol-2-yl]-benzamide] | – | – | – | less than 10%
3 | Noggin | – | – | – | less than 10%
